The source gives many values for each of these; only a part stands here.

By UniProt entry, the sequences of proteins in these tests, tags left out.
UniProt Q61188, whole entry: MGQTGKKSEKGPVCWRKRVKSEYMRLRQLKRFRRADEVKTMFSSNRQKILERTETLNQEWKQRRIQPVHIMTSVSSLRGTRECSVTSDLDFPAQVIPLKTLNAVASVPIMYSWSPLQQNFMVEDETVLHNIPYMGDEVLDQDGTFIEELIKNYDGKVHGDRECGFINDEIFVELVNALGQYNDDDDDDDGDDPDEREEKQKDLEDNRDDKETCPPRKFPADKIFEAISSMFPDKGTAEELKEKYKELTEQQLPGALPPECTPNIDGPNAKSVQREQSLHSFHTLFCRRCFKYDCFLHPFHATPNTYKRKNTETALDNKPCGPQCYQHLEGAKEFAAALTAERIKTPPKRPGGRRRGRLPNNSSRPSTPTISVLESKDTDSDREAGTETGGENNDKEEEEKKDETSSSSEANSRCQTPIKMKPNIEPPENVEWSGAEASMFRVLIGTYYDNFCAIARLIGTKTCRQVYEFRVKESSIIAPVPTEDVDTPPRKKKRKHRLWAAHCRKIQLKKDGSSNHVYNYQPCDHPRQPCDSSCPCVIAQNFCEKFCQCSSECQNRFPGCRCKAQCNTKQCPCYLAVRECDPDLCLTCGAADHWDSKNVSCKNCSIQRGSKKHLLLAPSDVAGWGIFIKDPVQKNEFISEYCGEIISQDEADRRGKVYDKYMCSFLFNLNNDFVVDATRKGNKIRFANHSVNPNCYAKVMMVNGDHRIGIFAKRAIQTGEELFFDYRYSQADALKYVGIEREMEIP

This is an account of results in ChEMBL document CHEMBL5674883, “The Heterochromatin Landscape in Migrating Cells and the Importance of H3K27me3 for Associated Transcriptome Alterations” (Cells, 2018).

What all share (assay type): cell-based
Experiment [1] addresses T1, RNA polymerase II (Mus musculus) (UniProt P08775+Q8CFI7+P97760+A0A3Q4L2S8+Q80UW8+P61219+P62488+Q923G2+P60898+O08740+Q63871+P62876). Description: Inhibition of RNA polymerase II in mouse B16-F1 migrating cells assessed as fold change in Aldoart1-RNA stability at 0.1 mM measured by ChIP-seq analysis relative to control cells.
In experiment [2] the target is T1, RNA polymerase II (Mus musculus). The experiment is described as follows: Inhibition of RNA polymerase II in mouse B16-F1 migrating cells assessed as fold change in 2310039H08Rik-RNA stability at 0.1 mM measured by ChIP-seq analysis relative to control cells.
For experiment [3] the target is unchanged. Description: Inhibition of RNA polymerase II in mouse B16-F1 migrating cells assessed as fold change in Dmac2-RNA stability at 0.1 mM measured by ChIP-seq analysis relative to control cells.
For experiment [4] the target is unchanged. Description: Inhibition of RNA polymerase II in mouse B16-F1 migrating cells assessed as fold change in Rpl32-RNA stability at 0.1 mM measured by ChIP-seq analysis relative to control cells.
Experiment [5] shares this target. The experiment is described as follows: Inhibition of RNA polymerase II in mouse B16-F1 migrating cells assessed as fold change in Btbd2-RNA stability at 0.1 mM measured by ChIP-seq analysis relative to control cells.
Experiment [6] shares this target. The experiment is described as follows: Inhibition of RNA polymerase II in mouse B16-F1 migrating cells assessed as fold change in Stub1-RNA stability at 0.1 mM measured by ChIP-seq analysis relative to control cells.
Experiment [7] shares this target. The experiment is described as follows: Inhibition of RNA polymerase II in mouse B16-F1 migrating cells assessed as fold change in Sox5-RNA stability at 0.1 mM measured by ChIP-seq analysis relative to control cells.
Experiment [8] has the same target. Description: Inhibition of RNA polymerase II in mouse B16-F1 migrating cells assessed as fold change in Kansl1-RNA stability at 0.1 mM measured by ChIP-seq analysis relative to control cells.
Experiment [9] shares this target. Description: Inhibition of RNA polymerase II in mouse B16-F1 migrating cells assessed as fold change in Hccs-RNA stability at 0.1 mM measured by ChIP-seq analysis relative to control cells.
Experiment [10] has the same target. The experiment is described as follows: Inhibition of RNA polymerase II in mouse B16-F1 migrating cells assessed as fold change in Rasa1-RNA stability at 0.1 mM measured by ChIP-seq analysis relative to control cells.
For experiment [11] the target is unchanged. Description: Inhibition of RNA polymerase II in mouse B16-F1 migrating cells assessed as fold change in Zbtb41-RNA stability at 0.1 mM measured by ChIP-seq analysis relative to control cells.
Experiment [12] has the same target. The experiment is described as follows: Inhibition of RNA polymerase II in mouse B16-F1 migrating cells assessed as fold change in Rapgef2-RNA stability at 0.1 mM measured by ChIP-seq analysis relative to control cells.
Experiment [13] shares this target. Description: Inhibition of RNA polymerase II in mouse B16-F1 migrating cells assessed as fold change in Dhx36-RNA stability at 0.1 mM measured by ChIP-seq analysis relative to control cells.
Experiment [14] shares this target. Description: Inhibition of RNA polymerase II in mouse B16-F1 migrating cells assessed as fold change in Nr3c1-RNA stability at 0.1 mM measured by ChIP-seq analysis relative to control cells.
The target is the same in experiment [15]. The experiment is described as follows: Inhibition of RNA polymerase II in mouse B16-F1 migrating cells assessed as fold change in Ube2v2-RNA stability at 0.1 mM measured by ChIP-seq analysis relative to control cells.
For experiment [16] the target is unchanged. The experiment is described as follows: Inhibition of RNA polymerase II in mouse B16-F1 migrating cells assessed as fold change in Fndc3c1-RNA stability at 0.1 mM measured by ChIP-seq analysis relative to control cells.
Experiment [17] has the same target. Description: Inhibition of RNA polymerase II in mouse B16-F1 migrating cells assessed as fold change in Atad5-RNA stability at 0.1 mM measured by ChIP-seq analysis relative to control cells.
The target is the same in experiment [18]. Description: Inhibition of RNA polymerase II in mouse B16-F1 migrating cells assessed as fold change in 6720489N17Rik-RNA stability at 0.1 mM measured by ChIP-seq analysis relative to control cells.
In experiment [19] the target is Histone-lysine N-methyltransferase EZH2 (Mus musculus) (UniProt Q61188). The experiment is described as follows: Inhibition of EZH2 in mouse B16-F1 migrating cells assessed as fold change in H3K27me3-independent regulated Ndrg2-mRNA expression at 3 uM measured by ChIP-seq analysis relative to control cells.
Experiment [20] has the same target. The experiment is described as follows: Inhibition of EZH2 in mouse B16-F1 migrating cells assessed as fold change in H3K27me3-independent regulated Pygl-mRNA expression at 3 uM measured by ChIP-seq analysis relative to control cells.
For experiment [21] the target is unchanged. The experiment is described as follows: Inhibition of EZH2 in mouse B16-F1 migrating cells assessed as fold change in H3K27me3-independent regulated Cenpe-mRNA expression at 3 uM measured by ChIP-seq analysis relative to control cells.
The target is the same in experiment [22]. Description: Inhibition of EZH2 in mouse B16-F1 migrating cells assessed as fold change in H3K27me3-independent regulated Ankrd34a-mRNA expression at 3 uM measured by ChIP-seq analysis relative to control cells.
The target is the same in experiment [23]. Description: Inhibition of EZH2 in mouse B16-F1 migrating cells assessed as fold change in H3K27me3-buffered regulated Hyal1-mRNA expression at 3 uM measured by ChIP-seq analysis relative to control cells.
Experiment [24] shares this target. The experiment is described as follows: Inhibition of EZH2 in mouse B16-F1 migrating cells assessed as fold change in H3K27me3-buffered regulated Tuba1a-mRNA expression at 3 uM measured by ChIP-seq analysis relative to control cells.
Experiment [25] shares this target. The experiment is described as follows: Inhibition of EZH2 in mouse B16-F1 migrating cells assessed as fold change in H3K27me3-buffered regulated Rock2-mRNA expression at 3 uM measured by ChIP-seq analysis relative to control cells.
For experiment [26] the target is unchanged. The experiment is described as follows: Inhibition of EZH2 in mouse B16-F1 migrating cells assessed as fold change in H3K27me3-buffered regulated Abca12-mRNA expression at 3 uM measured by ChIP-seq analysis relative to control cells.
For experiment [27] the target is unchanged. Description: Inhibition of EZH2 in mouse B16-F1 migrating cells assessed as fold change in H3K27me3-buffered regulated Ube2cbp-mRNA expression at 3 uM measured by ChIP-seq analysis relative to control cells.
The target is the same in experiment [28]. The experiment is described as follows: Inhibition of EZH2 in mouse B16-F1 migrating cells assessed as fold change in H3K27me3-buffered regulated Sgol2a-mRNA expression at 3 uM measured by ChIP-seq analysis relative to control cells.
For experiment [29] the target is unchanged. The experiment is described as follows: Inhibition of EZH2 in mouse B16-F1 migrating cells assessed as fold change in H3K27me3-buffered regulated Zan-mRNA expression at 3 uM measured by ChIP-seq analysis relative to control cells.
For experiment [30] the target is unchanged. Description: Inhibition of EZH2 in mouse B16-F1 migrating cells assessed as fold change in H3K27me3-buffered regulated Mef2c-mRNA expression at 3 uM measured by ChIP-seq analysis relative to control cells.

`OC[C@H]1O[C@@H](n2cnc3cc(Cl)c(Cl)cc32)[C@H](O)[C@@H]1O`: the log2FC in experiment [1] turned out to be 0.94; in [2] it was 0.64; in experiment [3] it was 0.63; in experiment [4] it was 0.47; in experiment [5], 0.46; in [6] it was 0.38. Besides, the log2FC in experiment [7] was -0.46; in experiment [8], -0.56; in experiment [9] it was -0.58; in experiment [10], -0.59; in experiment [11], -0.61; in experiment [12], -0.63. Besides, the log2FC in experiment [13] is -0.63; in experiment [14], -0.65; in experiment [15], -0.68; in experiment [16], -0.85; in [17] it was -0.92; in [18] it was -1.97.
Take `CCCc1cc(C)[nH]c(=O)c1CNC(=O)c1cc(-c2ccnc(N3CCN(C)CC3)c2)cc2c1cnn2C(C)C`: the log2FC in [19] was 0.73; in experiment [20], 0.61; in experiment [21], -0.64; in experiment [22] it was -0.89; in [23] it was 0.51; in experiment [24], 0.46. The log2FC in experiment [25] is -0.4; in experiment [26], -0.49; in experiment [27] it was -0.61; in [28], -0.62; in experiment [29], -0.95; in [30], -0.96.
